Experimental data taken from the supplement of paper PMC4604168 (melanoma cell lines).
The list shows a part of the results. Many values rest on one well or one pass, so single values are uncertain.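 The apoptosis fraction was the count of cleaved-PARP antibody-stained nuclei relative to all DNA-stained nuclei, imaged in 1,536-well plates. Screening doses were set so most cells survived, and baseline and induced cleaved-PARP levels vary greatly across cell lines.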

Test system: WM3619
Experiment: cleaved PARP positive nuclei fraction relative to DMSO control; melanoma cells; higher = more apoptosis
Conditions: library dose: low library concentration; 72 h

Structure (SMILES)	cleaved PARP positive nuclei fraction
O=C(CCCCCCC(=O)Nc1ccccc1)NO [vorinostat] + O=C(Nc1cccc(Cl)c1)Nc1ncc(CCNc2ncnc3ccsc23)s1 [SNS314] (first compound 0.08 µM, partner dose 0.0008 µM)	92.4%
Cn1cncc1[C@@](N)(c1ccc(Cl)cc1)c1ccc2c(c1)c(-c1cccc(Cl)c1)cc(=O)n2C [tipifarnib] + O=C(Nc1ccccc1)c1cc([N+](=O)[O-])ccc1Cl [GW9662] (first compound 0.01 µM, partner dose 2 µM)	107%
C[C@@H]1CCN(C(=O)CC#N)C[C@@H]1N(C)c1ncnc2[nH]ccc12 + N#Cc1c(O)c2c(-c3ccc(-c4ccccc4O)cc3)csc2[nH]c1=O [A769662] (first compound 1 µM, partner dose 2 µM)	78.8%
COCC[n+]1c2c(n(Cc3cnccn3)c1C)C(=O)c1ccccc1C2=O + CN(NC(=O)CC(=O)NN(C)C(=S)c1ccccc1)C(=S)c1ccccc1 [STA4783] (first compound 0.0004 µM, partner dose 0.006 µM)	334%
O=C(CCCCCCC(=O)Nc1ccccc1)NO [vorinostat] + COC(=O)c1sccc1S(=O)(=O)Nc1ccc(Nc2ccccc2)cc1OC [GSK0660] (first compound 0.08 µM, partner dose 1 µM)	72.8%
CO[C@@H]1[C@H](N(C)C(=O)c2ccccc2)C[C@H]2O[C@]1(C)n1c3ccccc3c3c4c(c5c6ccccc6n2c5c31)C(=O)NC4 [Midostaurin] + CN(NC(=O)CC(=O)NN(C)C(=S)c1ccccc1)C(=S)c1ccccc1 [STA4783] (first compound 0.08 µM, partner dose 0.006 µM)	109%
